# Results reported in US20080009448A1, “Peptide Derivative” (priority 2006, published 2008).
# Legend:
# [1] = test system: MSU induced knee osteoarthritis pain; experiment: MSU induced knee osteoarthritis pain model, hind leg paw-pressure ratio; format: in vivo; conditions: rat, oral, range in parentheses, read-out: ED50 of AUCs
# Procedure: (§1) Experimental animal, male SD type rats, weighing the body weight in the range of 170 to 190 g, were used for the studies. The animals had been kept under constant conditions (room temperature 23±1° C., humidity 52±2%, 12 hours light-and-dark cycle having light time 7:00 to 19:00 and dark time 19:00 to 7:00) until used for an experiment. The animals were fed the mouse solid diet (F2, Funabashi farm. Funabashi, Japan) with unrestricted tap water intake, and kept in captivity for at least more than two days in a laboratory.
# Any test drugs were dissolved in Ringer's solution (Fuso Yakuhin) to be used. […]
# Pressures to both hind leg paw were measured using a paw-pressure measurement apparatus and recorded. […] Calculated paw-pressure ratio (ppr) is a value calculated by dividing the pressure on the left hind leg by the pressure on the right hind leg according to the measured pressures on both hind legs.
# The anti-nociceptive effect was evaluated quantitatively by calculating % MPE (% of maximum possible effect) according to the following formula. […]
# In the formula, ppr 0 and ppr 1 are respective paw-pressure ratios on both hind legs before and after administration. ED50 value of anti-nociceptive activity was calculated using GraphPad Prism data-graph processing software version 4.0, San Diego, Calif., USA. […]
# inflammatory pain model = experiment: Rheumatoid arthritis / inflammatory pain model (CFA), Von Frey filament method; format: in vivo, mouse; conditions: for total AUC value / unit-time AUC value: 100 mg/Kg orally
# Procedure: as §1, with “ddy” for “SD”, “mice (Nihon SLC),” for “rats,”, “15” for “170”, “20” for “190”
# A mouse was firmly fixed without anesthesia and 25 μL of Complete Freund's Adjuvant (CFA) using a number 30 guage needle (Termo) was subcutaneously administered into the dorsum of left hind foot to provide an inflammatory pain model. The model was kept under the conditions noted above until used for the test.
# Measurement of anti-nociceptive activity on the inflammatory pain model was conducted according to Von Fray filament method as well as on never damaged model 5 days after CFA administration. The drugs were orally administered.
# The anti-nociceptive activity is represented as a unit AUC value (AUC/min) which is the total AUC value or AUC divided by the measurement time and compared to study. ED50 of the anti-nociceptive activity was calculated by reducing the measurement value to a percentage of the upper limit which was set as 2.0 for the unit AUC.
smiles,measurement,setting,value
CN1CC[C@]23c4c5ccc(O)c4O[C@H]2[C@@H](O)C=C[C@H]3[C@H]1C5 [Morphine],ED50,[1],86.4 mg/kg
same,total AUC value,inflammatory pain model; CFA administered foot,328
same,unit-time AUC value,inflammatory pain model; CFA administered foot,0.910 AUC/min
same,total AUC value,inflammatory pain model; CFA non-administered foot,556
same,unit-time AUC value,inflammatory pain model; CFA non-administered foot,1.545 AUC/min
same,total AUC value and unit-time AUC value of the CFA administered foot as part of those of the CFA non-administered foot,"inflammatory pain model; mice, CFA model, oral",approximately 60%
